Experimental data: US20220331364A1
Results are given in words; binding and its absence hold for the method and conditions named. Some entries that bind do so weakly or less than the wild type.

Biological target: recombinant HER-2 (UniProt P04626)
Assay: flow cytometry; engineered T cells incubated with recombinant HER-2

B1: Anti-HER-2 DARPin CAR (CD28-based CAR) (protein, not shown: small tags and cut ends)
chain: MSRGSDLGKKLLEAARAGQDDEVRILMANGADVNAKDEYGLTPLYLATAHGHLEIVEVLLKNGADVNAVDAIGFTPLHLAAFIGHLEIAEVLLKHGADVNAQDKFGKTAFDISIGNGNEDLAEILQKLN
  binding: binds
